Screen size: about 310,000 compounds; about 17,000 (5.5%) were called active. This list was built around the results that the source calls inconclusive (neither active nor inactive); the mix of calls is not that of the screen. Calls follow the shape of the dose curve; as a rule, active = well fitted inhibition curve with a large enough effect; inconclusive = small, poorly fitted or top-dose-only effect, or effect the other way; inactive = no such curve, though single readings can be large or run the other way. Potencies beside an inconclusive call are fits to weak or partial responses and may not hold up.
molecular target: Nuclear receptor ROR-gamma (Mus musculus) (UniProt P51450); test: qHTS for inhibitors of ROR gamma transcriptional activity; conditions: Drosophila S2 Gal4-RORgamma UAS-luciferase reporter, 20 h; activity change, negative = inhibition: at 53.6 µM (top of the series); also: nearly all actives have a fitted effect of over 60% in size
Method in brief: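 Drosophila Schneider cells stably carrying a metallothionein-driven Gal4 DBD–ROR gamma fusion and a UAS-Photinus luciferase reporter were exposed to compound for 1 hr, then induced with copper sulfate (700 uM final) for 20 hr at ambient temperature before luminescence reading.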
% is scaled to controls: 0 for no effect and ±100 for the full control effect; potency is read from the fitted curve at half-maximal effect.

By UniProt entry, the sequences of proteins in these tests, tags left out. Where a name states a change or a piece, a line headed by the entry shows the natural chain unless it says otherwise.
UniProt P51450: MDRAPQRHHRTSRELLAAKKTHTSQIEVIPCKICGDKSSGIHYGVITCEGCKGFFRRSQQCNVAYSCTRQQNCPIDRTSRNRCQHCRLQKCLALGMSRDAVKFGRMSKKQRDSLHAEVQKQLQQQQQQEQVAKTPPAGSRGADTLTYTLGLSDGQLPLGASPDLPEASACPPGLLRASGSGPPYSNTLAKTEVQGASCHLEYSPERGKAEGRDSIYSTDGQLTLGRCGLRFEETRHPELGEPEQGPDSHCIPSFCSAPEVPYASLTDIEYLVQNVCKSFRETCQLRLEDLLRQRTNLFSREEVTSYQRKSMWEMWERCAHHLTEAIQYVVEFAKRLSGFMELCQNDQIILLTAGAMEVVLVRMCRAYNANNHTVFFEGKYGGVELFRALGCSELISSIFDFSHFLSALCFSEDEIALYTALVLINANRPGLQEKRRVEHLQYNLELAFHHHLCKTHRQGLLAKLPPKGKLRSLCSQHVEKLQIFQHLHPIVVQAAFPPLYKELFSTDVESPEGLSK

Structure (SMILES)	activity change, negative = inhibition	Potency
COc1ccc(CCn2c(O)c(C=Nc3ccc(NC(C)=O)cc3)c(=O)[nH]c2=O)cc1OC	inactive: -14.4%	–
CCCCOCC1CO1 (configuration not stated)	inactive: 0.815%	–
O=C(C1CCN(S(=O)(=O)c2ccccc2)CC1)N1CCC2(CC1)OCCO2	inactive: -21.5%	–
CCc1ccc(C(=O)C23CN4CN(CN(C4)C2)C3)cc1	–	inconclusive: 0.708 µM [activator, single point]
Cc1cc(-c2cc(C)c(N)c(C)c2)cc(C)c1N	inactive: -7.33%	–
O=C(Nc1nccs1)c1c(O)c2c(n(Cc3ccco3)c1=O)CCCC2	–	inconclusive: 3.98 µM [activator, partial curve]
Cc1ccc(S(=O)(=O)N2CCC(=O)N(CCOC(=O)Nc3cccc(Cl)c3)CC2)cc1	–	inconclusive: 14.1 µM [activator, partial curve]
O=C(CCl)Nc1nccs1	–	inconclusive: 35.5 µM [inhibitor, single point]
CCN1C[C@]2(C)CC[C@H](OC)[C@@]34[C@H]1C1(OCO[C@@]15C[C@H](OC)C1C[C@]3(O)C5[C@H]1OC)[C@@H](O)[C@H]24	inactive: 7.08%	–
COc1cc2c(cc1O)[C@H]1Cc3ccc(OC)c(O)c3CN1CC2	–	inconclusive: 1.12 µM [inhibitor, full curve, poor fit]
Cc1ccc(-n2c(C)cc(/C=C3\C(=O)NC(=O)N(C)C3=O)c2C)cc1C	–	inconclusive: 14.1 µM [activator, single point]
CN(C)C1CSSSC1	–	inconclusive: 25.1 µM [inhibitor, single point]
CCOC(=O)c1sc2ccccc2c1NC(=O)c1coc2ccccc2c1=O	–	inconclusive: 25.1 µM [inhibitor, single point]
C[C@H]1CCC[C@@H](O)CCC/C=C/c2cc(O)cc(O)c2C(=O)O1	inactive: 7.82%	–
COCCOC(=O)C1=C(N)Oc2c(c(=O)oc3ccccc23)C1c1ccncc1 (configuration not stated)	–	inconclusive: 35.5 µM [activator, single point]
COc1ccc(C(=O)NC(=S)NNC(=O)c2cccnc2)cc1	–	active: 15.8 µM
CC(=O)OC1CC[C@]2(C)C(CCC3C2CC[C@]2(C)C(C4=CC(=O)OC4)C(OC(C)=O)CC32O)C1 (some centres not stated)	–	inconclusive: 1.41 µM [inhibitor, full curve]
Cc1ccccc1-n1c(O)c(C=Nc2ccc(N(C)C)cc2)c(=O)[nH]c1=O	inactive: -33.4%	–
COC(=O)c1ccc(NC2=C(Cl)C(=O)OC2OC(=O)c2ccccc2)cc1 (configuration not stated)	–	inconclusive: 17.8 µM [inhibitor, single point]
CCc1n[nH]c(=S)n1/N=C/c1c(C)nn(-c2ccccc2)c1Cl	–	active: 7.08 µM
CCc1ccc(NC(=S)NC2CC3CCC(C2)N3Cc2ccco2)cc1 (configuration not stated)	–	inconclusive: 14.1 µM [inhibitor, single point]

Structure (SMILES)	activity change, negative = inhibition	Potency
COC[C@H]([C@@H](O)[C@@H](O)C(=O)NCC[C@@H](C)c1nc(/C=C/C[C@H]2OC3(C[C@H](O)[C@H]2C)OC([C@@H](C[C@@H](O)[C@@H](C)[C@@H](O)[C@@H](C)/C=C(C)/C(C)=C/C=C/C(C)=C\C#N)OC)[C@@H](OP(=O)(O)O)C3(C)C)co1)N(C)C (some centres not stated)	–	active: 0.0063 µM
COc1ccc(N2C(=O)NC(=O)/C(=C\c3cn(CC(=O)N4CCOCC4)c4ccccc34)C2=O)c(OC)c1	–	inconclusive: 17.8 µM [activator, single point]
C[n+]1ccc(-c2ccncc2)cc1	inactive: -11.3%	–
CCCCn1c(=O)c(C=Nc2cc([N+](=O)[O-])ccc2OC)c(O)n(CCCCl)c1=O	–	inconclusive: 12.6 µM [activator, single point]
O=C(COc1ccccc1)N1CCN(CCN2C(=O)c3cccc4cccc(c34)C2=O)CC1	inactive: 12.3%	–
Cc1ccc(NP(=O)(Oc2ccccc2F)Oc2ccccc2F)cc1C	–	inconclusive: 20 µM [activator, partial curve]
O=C(O)c1nn(Cc2ccc(Cl)cc2Cl)c2ccccc12	–	inconclusive: 31.6 µM [activator, single point]
CCn1nc(-c2ccccc2)nc2c(=O)n(C)c(=O)nc1-2	–	active: 0.891 µM
CNc1ccc2oc(C[C@@H]3OC4(CC[C@@H]3C)O[C@H](C(C)C(=O)c3ccc[nH]3)[C@H](C)C[C@H]4C)nc2c1C(=O)O (some centres not stated)	–	active: 1.78 µM
O=C(Oc1nsnc1N1CCOCC1)N(c1ccccc1)c1ccccc1	–	inconclusive: 20 µM [activator, single point]
CCOC(=O)C1=C(c2ccccc2)OC(N)=C(C#N)C1C(C)C (configuration not stated)	–	inconclusive: 17.8 µM [activator, single point]
CCNC(=O)O/N=C(\C)c1sc(-c2ccccc2)nc1C	–	inconclusive: 35.5 µM [activator, single point]
CCCCOCCCn1c(N)c(C(=O)OC(C)COC)c2nc3ccccc3nc21 (configuration not stated)	–	inconclusive: 31.6 µM [inhibitor, single point]
CN(C(=O)Oc1ccc(Cl)c2cccnc12)c1ccccc1	–	inconclusive: 35.5 µM [activator, single point]
C=C(C)[C@@H]1CC[C@]2(C(=O)O)CC[C@]3(C)C(CCC4[C@@]5(C)CC[C@H](O)C(C)(C)C5CC[C@]43C)C12 (some centres not stated)	–	active: 3.16 µM
Cn1c(O)c(C(=NCCc2c[nH]c3ccccc23)c2ccccc2)c(=O)n(C)c1=O	–	inconclusive: 6.31 µM [activator, partial curve]
CCC(C(=O)O)C1CCC(C)C(C(C)C(O)C(C)C(=O)C(CC)C2OC3(C=CC(O)[C@@]4(CC[C@](C)(C5CC[C@@](O)(CC)C(C)O5)O4)O3)C(C)CC2C)O1 (some centres not stated)	–	active: 1.78 µM
C/C(=C\C=C/[C@@H](C)C(=O)O)[C@H]1CN[C@H](C(=O)O)[C@@H]1CC(=O)O	inactive: -22.1%	–
Cc1ccc(-c2nc3ccccc3c(=O)n2-c2ncccc2C)cc1	inactive: -14.7%	–
Cc1nc2ccc(OC(=O)c3ccccc3)cc2s1	–	inconclusive: 35.5 µM [activator, single point]
CC(=O)O[C@@]12CO[C@@H]1C[C@H](O)[C@@]1(C)C(=O)[C@H](O)C3=C(C)[C@@H](OC(=O)[C@H](O)[C@@H](NC(=O)c4ccccc4)c4ccccc4)C[C@@](O)([C@@H](OC(=O)c4ccccc4)C12)C3(C)C (some centres not stated)	–	inconclusive: 8.91 µM [activator, partial curve]

Single records, from the list above.
O=C(Oc1nsnc1N1CCOCC1)N(c1ccccc1)c1ccccc1 reads Potency: inconclusive: 20 µM [activator, single point]
CCNC(=O)O/N=C(\C)c1sc(-c2ccccc2)nc1C reads Potency: inconclusive: 35.5 µM [activator, single point]
